Measurements reported in PubChem BioAssay AID743454 (Peter MacCallum Cancer Centre, 2014)
Aim: 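Genes whose loss kills vorinostat-resistant colon cancer cells under vorinostat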 (primary screen). System: human HCT116-VR colon cancer cells, selected for vorinostat resistance. Reagent: siRNA pool against human genes, 40 nM siRNA pool. Time to read-out: vorinostat for 24 h, read-out about 72 h after transfection. Challenge: vorinostat at 2.5 µM final. Measured: 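Two measures, CellTiter-Fluor viability and luminescent caspase 3/7 activity, each as fold change against same-plate mock wells, mean of duplicates, then screen-wide robust z-score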. Reading the numbers: viability robust z-score: higher = more viable cells than screen typical; caspase robust z-score: higher = more caspase 3/7 activity than screen typical. Active means: 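a knock-down is a hit when classed RV1 or RV2 for lowered viability, or CA1 or CA2 for caspase activation; those lethal without drug were dropped; hits were retested singly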.
The deposit covers about 18,000 reagents; this is an unselected part. 450 of them (2.5%) count as active. 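Single biological run; no consistent viability z cut-off exists, so the class columns, not z-scores, define the calls.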 Reagent sequences are not shown.

HLA-DMB [SID135622484] showed viability hit class no change; caspase hit class no change; viability robust z-score 1.29; caspase robust z-score -0.56; inactive. With knock-down of MIMS1 [SID152154221], the screen gave viability hit class no change; caspase hit class no change; viability robust z-score -0.78; caspase robust z-score -0.94; inactive. Knock-down of CDY1B [SID134329830] gave: viability hit class no change; caspase hit class no change; viability robust z-score -0.57; caspase robust z-score 4.61; inactive. Knock-down of NLRP8 [SID134323257] gave: viability hit class no change; caspase hit class no change; viability robust z-score 0.44; caspase robust z-score -0.32; inactive. Knock-down of G6PC1 [SID152155534] gave: viability hit class no change; caspase hit class no change; viability robust z-score 0.72; caspase robust z-score 1.03; inactive. Silencing of COBLL1 [SID135623993] came out at: viability hit class no change; caspase hit class no change; viability robust z-score -0.15; caspase robust z-score -0.66; inactive.

RDH12 [SID134313198] scored viability hit class no change; caspase hit class no change; viability robust z-score -0.18; caspase robust z-score -0.44; inactive. Depletion of TRAM2 [SID135625150] gave: viability hit class no change; caspase hit class no change; viability robust z-score -1.44; caspase robust z-score -0.68; inactive. CLDN17 [SID134323740] scored viability hit class no change; caspase hit class no change; viability robust z-score -1.31; caspase robust z-score -0.56; inactive. After knock-down of APOOL [SID152154264], the screen gave viability hit class no change; caspase hit class no change; viability robust z-score 1.1; caspase robust z-score -0.24; inactive. Depletion of LATS2 [SID152149461] gave: viability hit class no change; caspase hit class no change; viability robust z-score -0.17; caspase robust z-score 0.6; inactive. Depletion of DDX23 [SID134323622] came out at: viability hit class no change; caspase hit class no change; viability robust z-score -1.86; caspase robust z-score 0.84; inactive.

MRPL52 [SID135623658] gave viability hit class no change; caspase hit class no change; viability robust z-score 0.92; caspase robust z-score -0.38; inactive. With knock-down of TARS3 [SID135623007], the screen gave viability hit class no change; caspase hit class no change; viability robust z-score 1.73; caspase robust z-score -0.34; inactive. For KRTAP6-1 [SID135623435], the values are viability hit class no change; caspase hit class no change; viability robust z-score -1.67; caspase robust z-score 1.37; inactive. TRMT10A [SID152152839] scored viability hit class no change; caspase hit class no change; viability robust z-score -1.02; caspase robust z-score 2.64; inactive. With knock-down of SNX11 [SID135622585], the record shows viability hit class no change; caspase hit class no change; viability robust z-score 0.48; caspase robust z-score 2.96; inactive. For PSEN2 [SID152147690], the values are viability hit class no change; caspase hit class no change; viability robust z-score 0.58; caspase robust z-score 0.19; inactive.

Knock-down of MBD3 [SID134317834] resulted in: viability hit class no change; caspase hit class no change; viability robust z-score -0.01; caspase robust z-score 0.25; inactive. KIRREL3 [SID152156335] gave viability hit class no change; caspase hit class no change; viability robust z-score 0.34; caspase robust z-score -1.16; inactive. Knock-down of LITAF [SID152153638] resulted in: viability hit class no change; caspase hit class no change; viability robust z-score 0.56; caspase robust z-score -0.86; inactive.

In a second layout: results already given
gene	PubChem SID	viability hit class	caspase hit class	viability robust z-score	caspase robust z-score	Outcome
CDY1B	SID134329830	no change	no change	-0.57	4.61	inactive
NLRP8	SID134323257	no change	no change	0.44	-0.32	inactive
G6PC1	SID152155534	no change	no change	0.72	1.03	inactive
